{"source": "paper PMC6949223", "binders": {"B1": {"name": "FLAG-RPN1 (ribophorin I) (protein, UniProt P04843 24-607)", "chain": "ASSEAPPLINEDVKRTVDLSSHLAKVTAEVVLAHLGGGSTSRATSFLLALEPELEARLAHLGVQVKGEDEEENNLEVRETKIKGKSGRFFTVKLPVALDPGAKISVIVETVYTHVLHPYPTQITQSEKQFVVFEGNHYFYSPYPTKTQTMRVKLASRNVESYTKLGNPTRSEDLLDYGPFRDVPAYSQDTFKVHYENNSPFLTITSMTRVIEVSHWGNIAVEENVDLKHTGAVLKGPFSRYDYQRQPDSGISSIRSFKTILPAAAQDVYYRDEIGNVSTSHLLILDDSVEMEIRPRFPLFGGWKTHYIVGYNLPSYEYLYNLGDQYALKMRFVDHVFDEQVIDSLTVKIILPEGAKNIEIDSPYEISRAPDELHYTYLDTFGRPVIVAYKKNLVEQHIQDIVVHYTFNKVLMLQEPLLVVAAFYILFFTVIIYVRLDFSITKDPAAEARMKVACITEQVLTLVNKRIGLYRHFDETVNRYKQSRDISTLNSGKKSLETEHKALTSEIALLQSRLKTEGSDLCDRVSEMQKLDAQVKELVLKSAVEAERLVAGKLKKDTYIENEKLISGKRQELVTKIDHILDAL"}}, "key": {"[1]": {"biological_target": "T1, HA-tagged SGK196-4NQ (N67/165/220/235Q mutant) (human) (UniProt Q9H5K3)", "T1 sequence": "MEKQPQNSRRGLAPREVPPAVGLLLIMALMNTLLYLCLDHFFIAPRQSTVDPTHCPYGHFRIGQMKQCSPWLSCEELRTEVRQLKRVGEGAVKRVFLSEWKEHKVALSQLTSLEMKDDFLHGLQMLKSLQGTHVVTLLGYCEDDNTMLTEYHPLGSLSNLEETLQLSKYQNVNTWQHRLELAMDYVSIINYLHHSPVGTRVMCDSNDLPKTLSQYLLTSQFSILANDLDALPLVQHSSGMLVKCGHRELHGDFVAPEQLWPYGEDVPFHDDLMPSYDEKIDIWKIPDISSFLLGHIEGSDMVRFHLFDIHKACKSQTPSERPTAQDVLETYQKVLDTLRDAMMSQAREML", "assay": "co-IP; HEK293 cells; lysate (1 mg) in 50 mM Tris-HCl pH 7.4, 150 mM NaCl, 1% NP-40, 0.1% SDS, 1 mM EDTA with Protein A/G magnetic beads and antibodies overnight; Western blotting"}, "[2]": {"biological_target": "HA-tagged SGK196-WT (protein O-mannose kinase) (human) (UniProt Q9H5K3)", "assay": "co-IP; HEK293 cells; lysate (1 mg) in 50 mM Tris-HCl pH 7.4, 150 mM NaCl, 1% NP-40, 0.1% SDS, 1 mM EDTA with Protein A/G magnetic beads and antibodies overnight; Western blotting"}}, "note": "No constants are given. Whether binding was seen depends on the method and setting. Binding seen in cells or lysates may run through a third protein. Some entries that bind do so weakly or less than the wild type. Where a sequence is shown, tags or fusion partners need not be part of it."}
{"binder": "B1", "values": [{"measurement": "binding", "setting": "[1]", "value": "binds"}, {"measurement": "binding", "setting": "[2]", "value": "binds"}]}
